Counter-ions that a name gives are not always drawn. Some of the results follow. The calls rarely recur for the same compound in another form.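 Kinases, fused to nanoluciferase, were expressed in K562 cells; luminescence was measured every 4 h from 2 to 18 h as percent of control (DMSO = 100%, positive control = 0%). A time point is decreased if signal falls significantly (2 sigma). Hits were called by the authors by a rule that is not shown; the count of time points alone does not decide it.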
Target: TEC (UniProt P42680)
Assay: kinase-Nluc reporter destabilization hit call (1 = scored as downregulated) (binary); higher = compound decreases kinase abundance
Details: K562; 2-18 h

The chains behind the UniProt entries cited, without tags or fusion partners. Where a name states a change or a piece, a line headed by the entry shows the natural chain unless it says otherwise.
UniProt P42680: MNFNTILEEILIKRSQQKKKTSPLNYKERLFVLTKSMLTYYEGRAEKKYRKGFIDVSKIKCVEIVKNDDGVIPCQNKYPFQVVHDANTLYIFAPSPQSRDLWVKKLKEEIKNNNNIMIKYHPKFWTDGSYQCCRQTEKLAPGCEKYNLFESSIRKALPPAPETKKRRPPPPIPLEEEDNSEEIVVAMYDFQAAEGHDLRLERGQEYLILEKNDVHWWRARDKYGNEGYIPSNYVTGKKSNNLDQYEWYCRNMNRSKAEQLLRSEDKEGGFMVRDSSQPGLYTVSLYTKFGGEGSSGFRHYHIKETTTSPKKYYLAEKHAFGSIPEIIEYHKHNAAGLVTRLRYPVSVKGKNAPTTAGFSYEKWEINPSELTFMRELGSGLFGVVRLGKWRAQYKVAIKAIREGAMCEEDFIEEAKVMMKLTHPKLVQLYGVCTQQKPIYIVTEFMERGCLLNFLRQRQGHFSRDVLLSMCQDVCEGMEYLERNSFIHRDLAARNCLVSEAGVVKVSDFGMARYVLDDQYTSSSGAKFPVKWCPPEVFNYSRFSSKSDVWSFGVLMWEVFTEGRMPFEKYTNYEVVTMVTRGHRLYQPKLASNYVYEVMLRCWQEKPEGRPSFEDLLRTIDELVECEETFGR

kinase-Nluc reporter destabilization hit call, inactive:
O=C(Nc1cccc(C(F)(F)F)c1)c1cccc2cc(Oc3cc(CO)ncn3)ccc12 (10 µM) 0
Oc1ccc(/C=C/c2cc(O)cc(O)c2)cc1 [Resveratrol] (10 µM) 0
O=c1[nH]c(C2CCCN2)nc2c1oc1ccc(Cl)cc12 (stereo not drawn) [XL413 (hydrochloride)] (10 µM) 0
CN(c1ccc(NC(=O)Nc2ccc(OC(F)(F)F)cc2)cc1)c1ccnc(Nc2cccc(S(N)(=O)=O)c2)n1 (2.5 µM) 0
C=C[C@@](C)(/C=C/c1ccc(O)cc1)CCC=C(C)C [Bakuchiol] (10 µM) 0
COc1cc2ncnc(-n3nc(-c4ccccn4)nc3N)c2cc1OC (10 µM) 0
CNc1nc(Nc2ccc(C(=O)N3CCOCC3)cc2OC)ncc1Cl (2.5 µM) 0
CC(C)S(=O)(=O)c1ccc2nccc(Nc3ccc4scnc4c3)c2c1 (10 µM) 0
CC(C)(O)[C@H]1CC[C@H](Nc2ccc3ncc(-c4cccc(C(F)(F)F)c4)n3n2)CC1 (10 µM) 0
CCN(CC)c1ccc2cc(-c3nc4cc(C)ccc4o3)c(=O)oc2c1 (10 µM) 0
CN(C)S(=O)(=O)c1ccc2c(c1)/C(=C/c1cc3c([nH]1)CCCC3)C(=O)N2 (2.5 µM) 0
C=CC(=O)Nc1cc(Nc2nccc(-n3cc(CN(C)C)c(-c4ccccc4)n3)n2)c(OC)cc1N1CCOCC1 [Lazertinib] (10 µM) 0
Cc1ccc2c(Nc3cccc(Cl)c3F)nccc2c1NC(=O)c1csc2c(N)ncnc12 [Belvarafenib] (10 µM) 0

Sorted by heavy-atom count (ascending): 3 of the compounds above
kinase-Nluc reporter destabilization hit call, inactive:
CNc1nc(Nc2ccc(C(=O)N3CCOCC3)cc2OC)ncc1Cl (2.5 µM) 0
CC(C)(O)[C@H]1CC[C@H](Nc2ccc3ncc(-c4cccc(C(F)(F)F)c4)n3n2)CC1 (10 µM) 0
CN(c1ccc(NC(=O)Nc2ccc(OC(F)(F)F)cc2)cc1)c1ccnc(Nc2cccc(S(N)(=O)=O)c2)n1 (2.5 µM) 0

Source: the supplement of paper PMC12823440, “Inhibitors supercharge kinase turnover through native proteolytic circuits” (Nature, 2025)
